# Laboratory results from the supplement of paper PMC12819154, “High-throughput peptide-centric local stability assay extends protein–ligand identification to membrane proteins, tissues and bacteria” (Nature Structural & Molecular Biology, 2025).
# Amino acid sequences for entries named in this document (tags omitted). A change or cut given only in a name is not applied to a line headed by its entry.
# UniProt O14543: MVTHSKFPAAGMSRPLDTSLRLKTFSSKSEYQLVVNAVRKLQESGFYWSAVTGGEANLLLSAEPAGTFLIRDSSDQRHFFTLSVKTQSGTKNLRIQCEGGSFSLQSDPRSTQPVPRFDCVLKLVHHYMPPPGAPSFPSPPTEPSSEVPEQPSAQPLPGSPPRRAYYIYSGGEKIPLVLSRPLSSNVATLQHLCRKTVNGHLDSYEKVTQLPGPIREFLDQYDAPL
# UniProt A6NKD9: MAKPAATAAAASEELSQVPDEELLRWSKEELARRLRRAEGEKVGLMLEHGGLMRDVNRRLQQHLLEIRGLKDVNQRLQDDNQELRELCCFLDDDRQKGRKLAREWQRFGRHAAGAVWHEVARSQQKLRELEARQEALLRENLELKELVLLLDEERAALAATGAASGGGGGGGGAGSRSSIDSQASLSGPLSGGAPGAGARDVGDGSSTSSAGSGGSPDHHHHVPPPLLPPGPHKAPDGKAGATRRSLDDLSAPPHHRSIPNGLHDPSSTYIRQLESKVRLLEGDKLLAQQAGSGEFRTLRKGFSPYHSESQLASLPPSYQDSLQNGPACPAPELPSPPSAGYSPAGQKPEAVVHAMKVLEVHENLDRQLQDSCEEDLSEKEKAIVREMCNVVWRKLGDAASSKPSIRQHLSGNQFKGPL
# UniProt A6QL64: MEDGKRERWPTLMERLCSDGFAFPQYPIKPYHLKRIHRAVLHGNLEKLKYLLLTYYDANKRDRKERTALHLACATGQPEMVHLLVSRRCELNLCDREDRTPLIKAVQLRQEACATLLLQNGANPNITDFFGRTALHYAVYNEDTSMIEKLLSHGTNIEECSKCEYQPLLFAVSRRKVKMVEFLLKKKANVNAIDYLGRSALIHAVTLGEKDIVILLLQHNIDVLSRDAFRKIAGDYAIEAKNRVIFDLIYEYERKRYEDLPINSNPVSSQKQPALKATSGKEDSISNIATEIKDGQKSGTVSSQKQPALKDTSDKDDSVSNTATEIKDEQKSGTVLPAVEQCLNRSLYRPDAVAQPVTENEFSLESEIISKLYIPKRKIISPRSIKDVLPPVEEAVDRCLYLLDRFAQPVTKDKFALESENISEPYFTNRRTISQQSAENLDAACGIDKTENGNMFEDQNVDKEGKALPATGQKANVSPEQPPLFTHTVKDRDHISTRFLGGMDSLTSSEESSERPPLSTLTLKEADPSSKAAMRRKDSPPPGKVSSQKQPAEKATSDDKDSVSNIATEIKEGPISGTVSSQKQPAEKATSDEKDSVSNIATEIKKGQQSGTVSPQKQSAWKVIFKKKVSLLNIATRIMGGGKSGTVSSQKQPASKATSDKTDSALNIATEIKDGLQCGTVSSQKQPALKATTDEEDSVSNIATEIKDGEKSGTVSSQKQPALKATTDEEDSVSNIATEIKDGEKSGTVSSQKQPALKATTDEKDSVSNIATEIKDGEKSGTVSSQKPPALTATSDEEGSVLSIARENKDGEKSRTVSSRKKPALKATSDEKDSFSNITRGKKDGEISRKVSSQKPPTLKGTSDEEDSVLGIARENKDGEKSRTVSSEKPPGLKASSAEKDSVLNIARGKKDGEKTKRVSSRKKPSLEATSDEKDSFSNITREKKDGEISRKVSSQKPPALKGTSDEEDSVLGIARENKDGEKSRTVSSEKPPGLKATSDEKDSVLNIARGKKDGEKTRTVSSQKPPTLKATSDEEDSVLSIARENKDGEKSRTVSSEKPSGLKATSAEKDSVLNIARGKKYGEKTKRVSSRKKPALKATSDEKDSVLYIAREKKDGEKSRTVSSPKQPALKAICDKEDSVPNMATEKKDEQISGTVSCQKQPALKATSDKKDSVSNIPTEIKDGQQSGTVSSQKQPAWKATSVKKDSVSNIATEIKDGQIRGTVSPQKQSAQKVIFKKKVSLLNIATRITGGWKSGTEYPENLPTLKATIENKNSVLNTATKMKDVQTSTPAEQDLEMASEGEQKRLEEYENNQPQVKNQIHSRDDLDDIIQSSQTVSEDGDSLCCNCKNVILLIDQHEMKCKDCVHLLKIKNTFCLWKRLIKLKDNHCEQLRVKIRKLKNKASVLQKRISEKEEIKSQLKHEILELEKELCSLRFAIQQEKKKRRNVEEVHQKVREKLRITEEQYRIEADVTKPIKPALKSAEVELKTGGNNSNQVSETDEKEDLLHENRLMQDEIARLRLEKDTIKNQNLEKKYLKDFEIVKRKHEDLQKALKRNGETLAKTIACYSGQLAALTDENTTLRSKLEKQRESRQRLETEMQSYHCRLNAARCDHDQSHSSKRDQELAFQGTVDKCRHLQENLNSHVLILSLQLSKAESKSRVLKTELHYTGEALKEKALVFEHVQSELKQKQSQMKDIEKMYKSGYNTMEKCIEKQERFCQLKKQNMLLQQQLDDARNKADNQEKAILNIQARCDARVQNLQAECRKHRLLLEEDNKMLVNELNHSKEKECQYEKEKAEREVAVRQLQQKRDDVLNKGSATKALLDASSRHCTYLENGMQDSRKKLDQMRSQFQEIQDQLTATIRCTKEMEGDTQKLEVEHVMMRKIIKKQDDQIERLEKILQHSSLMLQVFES
# UniProt A6NFI3: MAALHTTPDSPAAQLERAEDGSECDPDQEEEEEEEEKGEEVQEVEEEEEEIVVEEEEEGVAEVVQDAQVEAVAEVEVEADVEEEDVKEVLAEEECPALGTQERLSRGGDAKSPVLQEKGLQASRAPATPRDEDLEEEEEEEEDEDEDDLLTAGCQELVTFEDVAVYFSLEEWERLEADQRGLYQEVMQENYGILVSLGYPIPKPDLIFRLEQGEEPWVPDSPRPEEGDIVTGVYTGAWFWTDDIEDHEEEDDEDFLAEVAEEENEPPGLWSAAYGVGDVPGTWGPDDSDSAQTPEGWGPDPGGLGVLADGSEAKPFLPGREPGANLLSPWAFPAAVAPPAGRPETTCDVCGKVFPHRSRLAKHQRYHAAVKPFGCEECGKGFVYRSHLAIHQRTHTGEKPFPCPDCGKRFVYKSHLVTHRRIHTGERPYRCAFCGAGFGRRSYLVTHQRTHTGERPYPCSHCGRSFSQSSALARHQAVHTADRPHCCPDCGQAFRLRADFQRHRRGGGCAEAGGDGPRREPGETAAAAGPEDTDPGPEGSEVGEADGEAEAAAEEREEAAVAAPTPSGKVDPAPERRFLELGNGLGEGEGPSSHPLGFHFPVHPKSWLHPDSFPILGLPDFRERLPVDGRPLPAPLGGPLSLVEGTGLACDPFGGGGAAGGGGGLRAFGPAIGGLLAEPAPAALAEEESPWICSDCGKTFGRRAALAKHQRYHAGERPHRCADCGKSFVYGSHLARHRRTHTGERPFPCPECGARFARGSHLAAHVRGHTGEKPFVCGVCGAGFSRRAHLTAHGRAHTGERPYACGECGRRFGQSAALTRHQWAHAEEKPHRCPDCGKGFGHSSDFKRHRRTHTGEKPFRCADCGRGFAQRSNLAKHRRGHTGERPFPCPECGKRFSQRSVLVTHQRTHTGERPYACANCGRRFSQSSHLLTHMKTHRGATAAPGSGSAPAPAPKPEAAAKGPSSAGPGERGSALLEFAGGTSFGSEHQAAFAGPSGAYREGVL
# UniProt O15078: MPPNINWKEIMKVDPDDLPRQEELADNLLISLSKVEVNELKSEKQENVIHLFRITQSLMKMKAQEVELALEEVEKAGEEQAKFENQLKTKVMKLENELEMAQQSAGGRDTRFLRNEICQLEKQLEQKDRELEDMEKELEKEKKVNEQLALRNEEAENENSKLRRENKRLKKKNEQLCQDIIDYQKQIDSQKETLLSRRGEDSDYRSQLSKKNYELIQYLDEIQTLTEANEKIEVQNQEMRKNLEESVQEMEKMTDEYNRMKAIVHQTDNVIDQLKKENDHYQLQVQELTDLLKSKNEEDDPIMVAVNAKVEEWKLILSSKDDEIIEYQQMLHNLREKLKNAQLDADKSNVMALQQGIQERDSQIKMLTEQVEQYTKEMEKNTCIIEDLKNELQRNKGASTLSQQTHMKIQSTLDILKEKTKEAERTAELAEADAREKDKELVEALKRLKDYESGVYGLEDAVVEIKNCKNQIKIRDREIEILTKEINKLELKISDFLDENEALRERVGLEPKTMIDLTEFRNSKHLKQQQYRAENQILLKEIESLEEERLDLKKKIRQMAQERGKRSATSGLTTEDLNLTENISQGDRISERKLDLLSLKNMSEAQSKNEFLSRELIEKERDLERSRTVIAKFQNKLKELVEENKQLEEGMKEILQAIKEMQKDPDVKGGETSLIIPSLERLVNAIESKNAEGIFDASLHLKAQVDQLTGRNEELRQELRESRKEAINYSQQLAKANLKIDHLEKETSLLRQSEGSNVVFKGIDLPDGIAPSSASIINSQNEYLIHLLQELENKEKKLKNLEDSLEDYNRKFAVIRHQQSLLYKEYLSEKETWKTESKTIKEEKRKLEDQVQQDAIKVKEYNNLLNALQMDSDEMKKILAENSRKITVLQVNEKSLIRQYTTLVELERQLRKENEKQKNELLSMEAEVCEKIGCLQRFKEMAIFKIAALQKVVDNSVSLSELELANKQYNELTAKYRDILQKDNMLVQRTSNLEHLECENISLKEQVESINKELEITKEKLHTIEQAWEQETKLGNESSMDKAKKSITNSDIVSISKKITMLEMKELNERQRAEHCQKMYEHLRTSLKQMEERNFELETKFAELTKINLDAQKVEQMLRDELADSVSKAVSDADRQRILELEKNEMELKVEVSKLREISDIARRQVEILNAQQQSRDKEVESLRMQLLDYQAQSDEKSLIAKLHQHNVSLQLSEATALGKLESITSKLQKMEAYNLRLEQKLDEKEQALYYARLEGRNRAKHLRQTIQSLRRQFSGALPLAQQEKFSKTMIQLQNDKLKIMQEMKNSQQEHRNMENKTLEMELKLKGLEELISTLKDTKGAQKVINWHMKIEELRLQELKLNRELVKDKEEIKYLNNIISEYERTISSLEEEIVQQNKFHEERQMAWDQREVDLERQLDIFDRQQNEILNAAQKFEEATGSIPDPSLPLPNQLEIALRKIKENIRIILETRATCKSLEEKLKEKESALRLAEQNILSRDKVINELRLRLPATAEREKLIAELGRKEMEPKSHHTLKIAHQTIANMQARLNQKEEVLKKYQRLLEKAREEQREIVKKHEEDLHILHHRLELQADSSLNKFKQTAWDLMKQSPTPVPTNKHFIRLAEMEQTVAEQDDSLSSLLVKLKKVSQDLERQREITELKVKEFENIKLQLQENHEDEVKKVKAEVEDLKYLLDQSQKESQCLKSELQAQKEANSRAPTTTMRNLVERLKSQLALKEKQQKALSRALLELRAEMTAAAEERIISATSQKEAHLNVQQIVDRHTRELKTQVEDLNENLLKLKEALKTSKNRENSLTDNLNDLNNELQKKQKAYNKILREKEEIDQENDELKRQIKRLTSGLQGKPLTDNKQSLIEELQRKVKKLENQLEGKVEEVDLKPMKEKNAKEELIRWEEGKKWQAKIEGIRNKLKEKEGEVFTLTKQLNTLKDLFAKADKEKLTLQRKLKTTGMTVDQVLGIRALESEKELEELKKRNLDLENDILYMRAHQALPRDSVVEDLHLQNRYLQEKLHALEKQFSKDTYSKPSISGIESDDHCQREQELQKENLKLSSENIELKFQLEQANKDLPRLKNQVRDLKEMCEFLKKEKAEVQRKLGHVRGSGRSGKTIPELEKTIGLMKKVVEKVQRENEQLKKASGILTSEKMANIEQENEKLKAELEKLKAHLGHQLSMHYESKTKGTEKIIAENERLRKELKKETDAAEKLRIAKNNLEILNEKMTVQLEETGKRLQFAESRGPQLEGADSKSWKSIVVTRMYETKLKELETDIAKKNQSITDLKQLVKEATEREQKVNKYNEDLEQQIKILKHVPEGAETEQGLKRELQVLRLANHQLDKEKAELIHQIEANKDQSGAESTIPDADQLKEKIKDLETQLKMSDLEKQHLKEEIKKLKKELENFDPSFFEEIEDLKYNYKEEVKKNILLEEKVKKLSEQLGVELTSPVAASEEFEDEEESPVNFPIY
# UniProt O00463: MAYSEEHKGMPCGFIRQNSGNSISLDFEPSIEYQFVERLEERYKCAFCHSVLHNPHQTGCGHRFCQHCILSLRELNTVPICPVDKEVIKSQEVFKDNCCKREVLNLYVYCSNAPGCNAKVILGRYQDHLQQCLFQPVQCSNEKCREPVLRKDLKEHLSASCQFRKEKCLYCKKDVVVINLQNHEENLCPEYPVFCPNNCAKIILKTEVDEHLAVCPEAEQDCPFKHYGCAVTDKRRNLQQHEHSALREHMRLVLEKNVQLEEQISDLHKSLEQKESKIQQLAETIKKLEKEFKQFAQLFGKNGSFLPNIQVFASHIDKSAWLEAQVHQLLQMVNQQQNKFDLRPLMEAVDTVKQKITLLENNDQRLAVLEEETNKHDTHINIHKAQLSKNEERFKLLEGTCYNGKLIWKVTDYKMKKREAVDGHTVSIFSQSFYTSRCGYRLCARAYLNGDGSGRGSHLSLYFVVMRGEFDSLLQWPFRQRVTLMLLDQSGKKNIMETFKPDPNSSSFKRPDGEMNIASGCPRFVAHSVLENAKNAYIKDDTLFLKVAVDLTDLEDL
# Some of the results follow. Most values lie at the level of the controls, where differences are scatter.
# Compound: CN[C@@H]1C[C@H]2O[C@@](C)([C@@H]1OC)n1c3ccccc3c3c4c(c5c6ccccc6n2c5c31)C(=O)NC4 [staurosporine]
# Test: log2 fold change of tryptic peptide abundance, ligand vs vehicle (limited proteolysis) (log2 ratio); higher = more trypsin-susceptible (destabilized)
# Settings: ligand concentration: 20 uM; sample: K562 cleared lysate; digestion: 4 min, 22 C (HT-PELSA RT4min, Orbitrap Astral)
row,Target,log2 fold change
1,"NA (peptide sequence: IVELHQR, peptide start residue: 106) (UniProt B2RBV5)",0.343
2,"UniProt O14543 (peptide sequence: VTQLPGPIR, peptide start residue: 207)",0.119
3,"RIOK3 (peptide sequence: KHILVMSFIGHDQVPAPK, peptide start residue: 354) (UniProt O14730)",-0.101
4,"DFFA (peptide sequence: KTETVQEACER, peptide start residue: 281) (UniProt O00273)",-0.188
5,"IGF2BP3 (peptide sequence: KENAGAAEK, peptide start residue: 234) (UniProt O00425)",0.382
6,"UniProt O15117 (peptide sequence: FKYDGEIR, peptide start residue: 699)",-0.367
7,"CCDC85C (peptide sequence: RLQQHLLEIR, peptide start residue: 59) (UniProt A6NKD9)",-0.538
8,"HAX1 (peptide sequence: FHSPQHPPEEFGFGFSFSPGGGIR, peptide start residue: 51) (UniProt O00165)",-0.275
9,"PSMA7 (peptide sequence: DIVVLGVEK, peptide start residue: 39) (UniProt O14818)",-0.19
10,"WDR46 (peptide sequence: ALLEKVPAELICLDPR, peptide start residue: 504) (UniProt O15213)",-0.32
11,"UniProt A6NGE4 (peptide sequence: KENNGVLKK, peptide start residue: 402)",0.476
12,"PPP6C (peptide sequence: YLPENDLKR, peptide start residue: 18) (UniProt O00743)",0.201
13,"TOR1B (peptide sequence: KPLTLSLHGWAGTGK, peptide start residue: 101) (UniProt O14657)",-0.443
14,"CETN3 (peptide sequence: DAFELFDTDKDEAIDYHELK, peptide start residue: 32) (UniProt O15182)",-0.329
15,"UniProt O00507 (peptide sequence: FLFTTGFHTK, peptide start residue: 2051)",0.355
16,"ANKRD36 (peptide sequence: CLYLLDR, peptide start residue: 433) (UniProt A6QL64)",0.323
17,"SCD (peptide sequence: GFFFSHVGWLLVR, peptide start residue: 176) (UniProt O00767)",0.455
18,"ZNF316 (peptide sequence: CAFCGAGFGR, peptide start residue: 431) (UniProt A6NFI3)",-0.487

row,Target,log2 fold change
1,"CEP290 (peptide sequence: MTDEYNR, peptide start residue: 253) (UniProt O15078)",-0.511
2,"CIT (peptide sequence: CAELEEALQK, peptide start residue: 1272) (UniProt O14578)",-0.24
3,"UNC13B (peptide sequence: NKPEIFEVIRDVFTVNK, peptide start residue: 561) (UniProt O14795)",0.579
4,"TRAF5 (peptide sequence: FDLRPLMEAVDTVK, peptide start residue: 340) (UniProt O00463)",0.367
5,"UniProt C4AMC7 (peptide sequence: SQVQAIGEK, peptide start residue: 42)",0.495
6,"PDXK (peptide sequence: NPAGSVVMER, peptide start residue: 209) (UniProt O00764)",-0.314
7,"UniProt A8MQ14 (peptide sequence: SFTAGSTLIQHQR, peptide start residue: 429)",0.834
8,"TRAFD1 (peptide sequence: QIEALDPPMR, peptide start residue: 171) (UniProt O14545)",-0.103
9,"NDUFS8 (peptide sequence: GLGMTLSYLFR, peptide start residue: 67) (UniProt O00217)",-0.129
10,"UniProt O14924 (peptide sequence: VLVVDLGGSSSR, peptide start residue: 438)",-0.192
11,"UniProt A8MW92 (peptide sequence: NNQGNSFQAK, peptide start residue: 265)",-0.661
12,"YDJC (peptide sequence: RHSIPTGLHANLSEGRPVGPAR, peptide start residue: 55) (UniProt A8MPS7)",0.665
13,"NDUFA4 (peptide sequence: FYSVNVDYSK, peptide start residue: 64) (UniProt O00483)",-0.0771
14,"RER1 (peptide sequence: YIPFTHGKR, peptide start residue: 174) (UniProt O15258)",0.227
15,"UniProt C9JTQ0 (peptide sequence: AGLTALQLAAAR, peptide start residue: 153)",0.364
16,"LIN7A (peptide sequence: ATVAAFAASEGHSHPR, peptide start residue: 77) (UniProt O14910)",-0.19
17,"UniProt O15265 (peptide sequence: VPAVNNVHMK, peptide start residue: 859)",-0.503
18,"IMPA2 (peptide sequence: VSGETDLSK, peptide start residue: 159) (UniProt O14732)",0.338

# A different layout for some results above.
row	Target	log2 fold change
5	UniProt C4AMC7 (peptide sequence: SQVQAIGEK, peptide start residue: 42)	0.495
17	UniProt O15265 (peptide sequence: VPAVNNVHMK, peptide start residue: 859)	-0.503
